From publication PMC5589630

Target: T1, CLOCK protein (in the test of the PIWIL2 deletion mutants) (UniProt O15516)
T1 sequence: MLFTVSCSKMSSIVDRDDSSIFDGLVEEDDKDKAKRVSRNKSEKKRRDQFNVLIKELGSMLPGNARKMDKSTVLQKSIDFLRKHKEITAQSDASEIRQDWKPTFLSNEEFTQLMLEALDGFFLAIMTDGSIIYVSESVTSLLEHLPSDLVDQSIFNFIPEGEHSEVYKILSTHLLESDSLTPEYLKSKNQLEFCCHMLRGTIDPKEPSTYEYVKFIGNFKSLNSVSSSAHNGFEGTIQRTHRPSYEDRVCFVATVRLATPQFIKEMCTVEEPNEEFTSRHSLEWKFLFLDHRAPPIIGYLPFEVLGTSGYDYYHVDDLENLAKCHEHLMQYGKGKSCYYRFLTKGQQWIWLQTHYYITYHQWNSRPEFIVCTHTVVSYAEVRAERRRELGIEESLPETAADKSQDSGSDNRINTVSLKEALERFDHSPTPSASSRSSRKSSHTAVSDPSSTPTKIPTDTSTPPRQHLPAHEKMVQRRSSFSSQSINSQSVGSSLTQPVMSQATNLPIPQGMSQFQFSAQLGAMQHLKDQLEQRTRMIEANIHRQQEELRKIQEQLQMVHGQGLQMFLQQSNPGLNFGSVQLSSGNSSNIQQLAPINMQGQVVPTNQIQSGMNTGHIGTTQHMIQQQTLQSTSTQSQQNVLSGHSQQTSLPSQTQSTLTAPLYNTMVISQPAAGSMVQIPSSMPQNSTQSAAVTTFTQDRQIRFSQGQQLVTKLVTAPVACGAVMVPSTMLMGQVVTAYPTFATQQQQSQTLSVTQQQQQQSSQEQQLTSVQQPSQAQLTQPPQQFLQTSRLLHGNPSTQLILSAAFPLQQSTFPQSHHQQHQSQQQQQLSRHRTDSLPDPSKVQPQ
Test: co-IP; PIWIL2 deletion mutants tested for binding to CLOCK (Figure 2H); cells and precipitating antibody not stated

In the case of “PIWIL2 mutant with a deletion of the PIWI conserved domain (domain or fragment)”, the binding is reported as “no binding”.

No constants are given. Whether binding was seen depends on the method and setting. Binding seen in cells or lysates may run through a third protein.
